Results from patent US20240368286A1.
These are yes or no findings as the source states them, for the method shown. A result given as binding can be weak or reduced; the word gives no strength. One block for each binder: values may come before it.

Molecular target: Cynomolgus monkey GFRAL protein (Biacore analyte) (cynomolgus monkey)
Assay: Biacore SPR

- binding: binds
B1: 26D7H3aL2c (antibody, V domains shown)
VH: QVQLVQSGAEVKKPGASVKISCKVSGYTFTDYGMNWVRQTPGQGLKWVGWINTYTGEPTYADDFKDRFTFTLDASTSTAYMELRSLRSDDTAVYFCARRYGYDAGIDAWGQGTLVTVSS
VL: EIVLTQSPGTLSLSPGERATLSCRASESVESYGNNLMHWYQQKPGQAPRLLIYLASYLESGVPDRFSGSGSGTDFTLTISRLEPEDFATYYCQQNNESPWTFGQGTKVEIK

- binding: binds
B2: 26D7H5bL5a (antibody, V domains shown)
VH: QVQLVQSGAEVKKPGASVKVSCKVSGYTFTDYGMNWVRQAPGQGLEWMGWINTYTGEPTYAQKLQGRVTFTTDTSTSTAYMELRSLRSDDTAVYYCARRYGYDAGIDAWGQGTTVTVSS
VL: DIQMTQSPSSLSASVGDRVTITCRASESVESYGNNLMHWYQQKPGKAPKLLIYLASYLESGVPSRFSGSGSGTDFTLTISSLQPEDFATYYCQQNNESPWTFGGGTKLEIK
